No constants are given. Whether binding was seen depends on the method and setting. Some results given as binding are weak or reduced against the parent protein; the word gives no strength.
B1: mAb27247 (antibody, human IgG4 S228P, kappa, V domains shown)
VH: EIQLVESGGDLVQPGGSLKLSCAASGFTFSDSAMHWVRQASGKGLEWVGRIRNKANTYATSYAASVKGRFTVSTDDSKTTAYLQMRYLKIEDTAIYYCTSDQFDYWGQGTLVTVSS
VL: DVVMTQSPLSLSATLGQPASISCRSSQSLVYSDGITYLTWFQQRPGQSPTRLIYQVSNRDSGVPDRFNGSGSGTDFTLNISRVEAEDVGFYYCMEGTHWPWTFGQGTKVELKR
B2: mAb22115 (antibody, human IgG4 S228P, kappa, V domains shown)
VH: EVQLVESGGGLVQPGGSLRLSCAASGFTSSRYWMSWVRQAPGKGLEWLANINQDGSEKYYLESLRGRFTISRDNAKNSLYLQMNNLRAEDTAVYYCARDEEGYWGQGTLVTVSS
VL: DVVMTQSLLSLSVTLGQPASISCRSSQSLVYSDGDTYLSWFQQRPGQSPRRLIYKVSHRDSGVPDRFRGSGSGTDFTLKISRVEAEDVGIYYCMQGTHWPPTFGQGTKVEIKR
B3: mAb29266 (antibody, human IgG4 S228P, kappa, V domains shown)
VH: QVQLVESGGGVVQPGRSLRLSCEVSGFTFSNYGMHWVRQAPGKGLEWVAVVSYDGSNKYYTDSVKGRFTISRDNSKNTLSLQMNSLRAEDTAVYYCAKDRGITGTSGGVFDIWGQGTMVTVSS
VL: AIRMTQSPSSFSATTGDRVTITCRASQGISSHLAWYQQKPGKAPKFLIYVASTLQSGVPSRFSGSGSGTDFTLTISSLQSEDFATYYCQQYYSYPPTFGQGTKVEIKR

Amino acid sequences for entries named in this document (tags omitted). A change or cut given only in a name is not applied to a line headed by its entry.
UniProt Q04771: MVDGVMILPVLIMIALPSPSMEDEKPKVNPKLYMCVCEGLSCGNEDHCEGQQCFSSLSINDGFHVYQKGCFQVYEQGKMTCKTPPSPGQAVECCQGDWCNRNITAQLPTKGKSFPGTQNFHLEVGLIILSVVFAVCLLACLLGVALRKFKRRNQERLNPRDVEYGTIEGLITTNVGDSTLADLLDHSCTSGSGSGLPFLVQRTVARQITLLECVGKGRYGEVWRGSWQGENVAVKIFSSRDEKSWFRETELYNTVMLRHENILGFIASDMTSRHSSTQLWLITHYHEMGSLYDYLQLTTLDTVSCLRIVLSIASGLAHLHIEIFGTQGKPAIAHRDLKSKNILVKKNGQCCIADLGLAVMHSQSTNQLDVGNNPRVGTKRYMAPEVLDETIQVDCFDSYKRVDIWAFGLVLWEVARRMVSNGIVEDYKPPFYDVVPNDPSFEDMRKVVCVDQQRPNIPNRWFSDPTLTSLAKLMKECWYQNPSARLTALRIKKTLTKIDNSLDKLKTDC

Target: full length human ACVR1 (R206H) on HEK293/BRE-luc/hACVR1-R206H-clone H2 cells (human) (UniProt Q04771)
Assay: flow cytometry, HEK293/hACVR1-R206H cells

binding, binds:
B1
B2
B3

From US20210253716A1
